Binding data for two molecules are collected here from patent publication US20180230218A1.

Sequences of proteins named here, by UniProt entry; tags and fusion partners are left off. Residues count along the entry.
UniProt P08581, residues 25-932: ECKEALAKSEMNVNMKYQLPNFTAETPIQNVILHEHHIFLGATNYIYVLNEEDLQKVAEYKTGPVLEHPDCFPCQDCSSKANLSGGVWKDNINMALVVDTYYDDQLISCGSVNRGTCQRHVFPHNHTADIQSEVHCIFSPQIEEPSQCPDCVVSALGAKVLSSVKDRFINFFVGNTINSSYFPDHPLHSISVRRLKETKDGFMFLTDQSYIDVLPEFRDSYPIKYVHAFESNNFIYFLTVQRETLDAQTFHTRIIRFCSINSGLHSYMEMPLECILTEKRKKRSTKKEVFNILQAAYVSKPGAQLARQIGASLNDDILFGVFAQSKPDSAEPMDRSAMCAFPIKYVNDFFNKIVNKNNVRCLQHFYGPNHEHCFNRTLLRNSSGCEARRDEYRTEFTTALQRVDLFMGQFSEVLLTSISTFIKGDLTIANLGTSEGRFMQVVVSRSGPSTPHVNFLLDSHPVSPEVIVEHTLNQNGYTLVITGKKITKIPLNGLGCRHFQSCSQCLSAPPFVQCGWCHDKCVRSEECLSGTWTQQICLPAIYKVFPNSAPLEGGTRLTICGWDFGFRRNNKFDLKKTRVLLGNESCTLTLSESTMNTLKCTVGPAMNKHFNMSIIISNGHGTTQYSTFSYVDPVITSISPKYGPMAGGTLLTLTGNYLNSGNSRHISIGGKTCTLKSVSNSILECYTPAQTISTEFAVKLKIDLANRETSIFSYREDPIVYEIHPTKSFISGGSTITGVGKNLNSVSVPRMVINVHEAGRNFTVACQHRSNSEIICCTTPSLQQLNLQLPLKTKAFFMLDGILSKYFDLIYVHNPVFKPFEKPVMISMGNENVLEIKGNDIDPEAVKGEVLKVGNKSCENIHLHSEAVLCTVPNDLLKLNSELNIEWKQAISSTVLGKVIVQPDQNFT

This assay addresses Human cMet-ECD-his (human) (UniProt P08581). Kind of assay: BLI (ForteBio).

No constants are given. Whether binding was seen depends on the method and setting. Some entries that bind do so weakly or less than the wild type.

B1: hucMet27v1.2 (antibody, human IgG1, kappa, V domains shown)
VH: EVQLVESGGGLVQPGGSLRLSCAASGFTFSSYDMSWVRQTPGKGLELVATINSNGVSIYYPDSVKGRFTISRDIAKNTLYLQMSSLRAEDTAMYYCAREEITTEMDYWGQGTSVTVSS
VL: DIVLTQSPASLAVSPGQRATISCRASESVDSYGNSFIHWYQQKPGQPPKLLIYRASNLESGIPARFSGSGSRTDFTLTINPVEANDVATYYCQQSNEEPLTFGGGTKLELKR
Regarding B1, the binding entry was “binds”.

B2: hucMet22Gv2.2 (antibody, V domains shown)
VH: QVQLVQSGAEVKKPGASVKVSCKASGYTFTDYNMDWVRQAPGQRLEWIGDLNPNNGATIYNQKFKGRATLTVDMSASTAYMELSSLRSEDTAVYYCARGNYYGNYYYLMDYWGQGTSVTVSS
VL: DIQMTQSPSSLSASVGDRVTITCRASENIYSTLAWYQQKPGKAPKLLVYAATNLADGVPSRFSGSGSGTDYTLTISSLQPEDFATYYCQHFWGTPYTFGQGTKVEIKR
As to B2, the binding entry is reported as “binds”.
